In the experiment the target is curculin B expressed in Escherichia coli and refolded (subunit of homodimer curculin) (Curculigo latifolia) (UniProt P19667). Kind of experiment: SDS-PAGE under reducing and non-reducing conditions, CBB staining, refolded E. coli protein.

Results are given in words; binding and its absence hold for the method and conditions named. Some entries that bind do so weakly or less than the wild type.

Among the data in patent US20080305522A1 (MITSUKAN GROUP, published 2008) are binding values, retold here.

B1: curculin B expressed in Escherichia coli and refolded (subunit of homodimer curculin) (protein)
chain: DNVLLSGQTLHADHSLQAGAYTLTIQNKCNLVKYQNGRQIWASNTDRRGSGCRLTLLSDGNLVIYDHNNNDVWGSACWGDNGKYALVLQKDGRFVIYGPVLWSLGPNGCRRVNG
Turning to B1, the binding result is recorded as “binds”.
